{"source": "PubChem BioAssay AID1259298 – Sanger Institute | 2017", "purpose": "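Kinase knock-downs that cut colorectal cancer cell viability or act with targeted drugs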 (primary screen)", "cell system": "HT55 human colorectal cancer cell line", "reagent": "siRNA pool against human genes", "conditions": "anchor drug BYL719 1 µM, cetuximab 5 µg/ml or trametinib 10 nM, or DMSO vehicle alone", "measurement": "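Replicate-averaged viability versus wells of non-targeting pool; knock-down-only robust z-score; per-drug synergy score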", "reading the numbers": "robust z-score, knock-down alone: higher = more cells remaining; low means essential gene; viability vs control pool, no drug: higher = more viable cells", "units": "viability vs control pool, no drug in fraction", "call rule": "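a gene counts as essential if its knock-down-alone robust z-score falls under -3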", "calls": "active = essential (knock-down alone); inactive = no change alone", "note": "Here is an unselected part of 794 reagents tested. Over the whole deposit, 20 (2.5%) were called active. 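Calls rest only on the knock-down-alone score; drug synergy scores played no part in them.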 Unmarked entries are inactive. No viability above 1 is reported: the scale is capped. Further read-outs or replicates are left out here. Not given: the amount of reagent, the time to read-out."}
{"Target gene":"MYLK4 (myosin light chain kinase family member 4)","robust z-score, knock-down alone":0.58,"viability vs control pool, no drug":1}
{"Target gene":"PIK3CA","robust z-score, knock-down alone":-0.0251,"viability vs control pool, no drug":0.953}
{"Target gene":"SGK2 (serum/glucocorticoid regulated kinase 2)","robust z-score, knock-down alone":0.164,"viability vs control pool, no drug":0.967}
{"Target gene":"RPS6KC1 (ribosomal protein S6 kinase C1)","robust z-score, knock-down alone":0.58,"viability vs control pool, no drug":1}
{"Target gene":"CDK5 (cyclin dependent kinase 5)","robust z-score, knock-down alone":0.58,"viability vs control pool, no drug":1}
{"Target gene":"DTYMK (deoxythymidylate kinase)","robust z-score, knock-down alone":0.58,"viability vs control pool, no drug":1}
{"Target gene":"PI4K2B (phosphatidylinositol 4-kinase type 2 beta)","robust z-score, knock-down alone":0.58,"viability vs control pool, no drug":1}
{"Target gene":"TK2 (thymidine kinase 2)","robust z-score, knock-down alone":0.442,"viability vs control pool, no drug":0.989}
{"Target gene":"RFK (riboflavin kinase)","robust z-score, knock-down alone":0.519,"viability vs control pool, no drug":0.995}
{"Target gene":"PRKAR2B","robust z-score, knock-down alone":"-4.54 (active)","viability vs control pool, no drug":0.599}
{"Target gene":"GRK2 (G protein-coupled receptor kinase 2)","robust z-score, knock-down alone":0.58,"viability vs control pool, no drug":1}
{"Target gene":"LYN (LYN proto-oncogene, Src family tyrosine kinase)","robust z-score, knock-down alone":0.58,"viability vs control pool, no drug":1}
{"Target gene":"BCOR (BCL6 corepressor)","robust z-score, knock-down alone":-1.56,"viability vs control pool, no drug":0.832}
{"Target gene":"BRD2 (bromodomain containing 2)","robust z-score, knock-down alone":0.58,"viability vs control pool, no drug":1}
{"Target gene":"MAP2K1 (mitogen-activated protein kinase kinase 1)","robust z-score, knock-down alone":0.58,"viability vs control pool, no drug":1}
{"Target gene":"NTRK3 (neurotrophic receptor tyrosine kinase 3)","robust z-score, knock-down alone":0.58,"viability vs control pool, no drug":1}
{"Target gene":"MATK (megakaryocyte-associated tyrosine kinase)","robust z-score, knock-down alone":-0.752,"viability vs control pool, no drug":0.896}
{"Target gene":"TEX14 (testis expressed 14, intercellular bridge forming factor)","robust z-score, knock-down alone":0.58,"viability vs control pool, no drug":1}
{"Target gene":"ADK (adenosine kinase)","robust z-score, knock-down alone":0.58,"viability vs control pool, no drug":1}
{"Target gene":"AKAP9 (A-kinase anchoring protein 9)","robust z-score, knock-down alone":-0.779,"viability vs control pool, no drug":0.894}
{"Target gene":"WNK3 (WNK lysine deficient protein kinase 3)","robust z-score, knock-down alone":0.58,"viability vs control pool, no drug":1}
{"Target gene":"WNK4 (WNK lysine deficient protein kinase 4)","robust z-score, knock-down alone":0.58,"viability vs control pool, no drug":1}
{"Target gene":"PRKCG (protein kinase C gamma)","robust z-score, knock-down alone":0.58,"viability vs control pool, no drug":1}
{"Target gene":"RSKR (ribosomal protein S6 kinase related)","robust z-score, knock-down alone":0.58,"viability vs control pool, no drug":1}
{"Target gene":"SRMS","robust z-score, knock-down alone":-1.65,"viability vs control pool, no drug":0.826}
{"Target gene":"MAP3K8 (mitogen-activated protein kinase kinase kinase 8)","robust z-score, knock-down alone":-0.624,"viability vs control pool, no drug":0.906}
{"Target gene":"MAP4K1 (mitogen-activated protein kinase kinase kinase kinase 1)","robust z-score, knock-down alone":-1.35,"viability vs control pool, no drug":0.849}
{"Target gene":"HK2 (hexokinase 2)","robust z-score, knock-down alone":0.58,"viability vs control pool, no drug":1}

Reformatted: entries from further up.
Target gene	robust z-score, knock-down alone	viability vs control pool, no drug
RSKR (ribosomal protein S6 kinase related)	0.58	1
SRMS	-1.65	0.826
MAP3K8 (mitogen-activated protein kinase kinase kinase 8)	-0.624	0.906
MAP4K1 (mitogen-activated protein kinase kinase kinase kinase 1)	-1.35	0.849
